Assay results published in the supplement of paper PMC10849652.
The other results are listed elsewhere or left out. Residues, ends and D or L forms follow the SMILES beside them. *: point of attachment. Cbz = O=C(OCc1ccccc1)*

The chains behind the UniProt entries cited, without tags or fusion partners. Where a name states a change or a piece, a line headed by the entry shows the natural chain unless it says otherwise.
UniProt P29218: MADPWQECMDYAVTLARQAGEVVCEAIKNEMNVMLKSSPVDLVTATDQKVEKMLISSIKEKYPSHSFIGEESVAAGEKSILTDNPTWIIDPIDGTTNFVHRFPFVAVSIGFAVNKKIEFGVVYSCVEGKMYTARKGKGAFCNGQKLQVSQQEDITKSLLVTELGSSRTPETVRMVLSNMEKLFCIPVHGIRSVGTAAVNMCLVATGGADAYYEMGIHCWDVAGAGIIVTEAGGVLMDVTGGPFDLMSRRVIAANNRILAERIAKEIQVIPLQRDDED
UniProt O15357: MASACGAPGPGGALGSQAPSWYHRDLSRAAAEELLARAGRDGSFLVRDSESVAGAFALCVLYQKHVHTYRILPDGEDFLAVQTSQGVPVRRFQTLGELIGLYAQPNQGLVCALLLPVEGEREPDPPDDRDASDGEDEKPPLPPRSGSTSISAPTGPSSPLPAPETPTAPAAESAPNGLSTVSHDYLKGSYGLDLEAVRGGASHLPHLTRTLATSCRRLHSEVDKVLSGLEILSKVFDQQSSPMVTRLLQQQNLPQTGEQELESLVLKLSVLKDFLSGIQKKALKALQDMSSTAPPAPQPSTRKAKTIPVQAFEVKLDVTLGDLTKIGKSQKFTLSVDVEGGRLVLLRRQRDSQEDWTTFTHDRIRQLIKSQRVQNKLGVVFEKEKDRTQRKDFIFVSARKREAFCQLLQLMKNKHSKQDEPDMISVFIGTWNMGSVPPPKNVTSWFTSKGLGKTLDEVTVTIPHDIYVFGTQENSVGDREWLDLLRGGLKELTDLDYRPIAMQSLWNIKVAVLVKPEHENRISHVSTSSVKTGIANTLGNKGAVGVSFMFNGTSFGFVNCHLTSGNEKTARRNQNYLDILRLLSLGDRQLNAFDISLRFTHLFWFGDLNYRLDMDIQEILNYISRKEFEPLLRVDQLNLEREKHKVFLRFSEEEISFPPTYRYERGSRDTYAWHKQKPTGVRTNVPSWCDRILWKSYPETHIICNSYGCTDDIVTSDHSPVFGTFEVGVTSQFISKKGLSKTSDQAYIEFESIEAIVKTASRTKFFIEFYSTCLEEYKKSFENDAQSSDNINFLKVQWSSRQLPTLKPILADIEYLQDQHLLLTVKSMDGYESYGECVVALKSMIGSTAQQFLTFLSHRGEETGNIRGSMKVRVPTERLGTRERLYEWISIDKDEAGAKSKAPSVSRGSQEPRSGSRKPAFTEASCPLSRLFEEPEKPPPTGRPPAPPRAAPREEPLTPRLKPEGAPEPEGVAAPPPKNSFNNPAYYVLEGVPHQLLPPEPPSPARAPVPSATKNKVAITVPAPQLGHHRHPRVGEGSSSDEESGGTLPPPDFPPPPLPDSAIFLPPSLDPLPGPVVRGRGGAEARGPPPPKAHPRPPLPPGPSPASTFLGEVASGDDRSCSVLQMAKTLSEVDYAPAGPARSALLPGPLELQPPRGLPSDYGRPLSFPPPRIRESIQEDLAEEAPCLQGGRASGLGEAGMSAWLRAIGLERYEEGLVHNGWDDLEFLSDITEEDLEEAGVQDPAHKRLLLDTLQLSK
UniProt Q06033: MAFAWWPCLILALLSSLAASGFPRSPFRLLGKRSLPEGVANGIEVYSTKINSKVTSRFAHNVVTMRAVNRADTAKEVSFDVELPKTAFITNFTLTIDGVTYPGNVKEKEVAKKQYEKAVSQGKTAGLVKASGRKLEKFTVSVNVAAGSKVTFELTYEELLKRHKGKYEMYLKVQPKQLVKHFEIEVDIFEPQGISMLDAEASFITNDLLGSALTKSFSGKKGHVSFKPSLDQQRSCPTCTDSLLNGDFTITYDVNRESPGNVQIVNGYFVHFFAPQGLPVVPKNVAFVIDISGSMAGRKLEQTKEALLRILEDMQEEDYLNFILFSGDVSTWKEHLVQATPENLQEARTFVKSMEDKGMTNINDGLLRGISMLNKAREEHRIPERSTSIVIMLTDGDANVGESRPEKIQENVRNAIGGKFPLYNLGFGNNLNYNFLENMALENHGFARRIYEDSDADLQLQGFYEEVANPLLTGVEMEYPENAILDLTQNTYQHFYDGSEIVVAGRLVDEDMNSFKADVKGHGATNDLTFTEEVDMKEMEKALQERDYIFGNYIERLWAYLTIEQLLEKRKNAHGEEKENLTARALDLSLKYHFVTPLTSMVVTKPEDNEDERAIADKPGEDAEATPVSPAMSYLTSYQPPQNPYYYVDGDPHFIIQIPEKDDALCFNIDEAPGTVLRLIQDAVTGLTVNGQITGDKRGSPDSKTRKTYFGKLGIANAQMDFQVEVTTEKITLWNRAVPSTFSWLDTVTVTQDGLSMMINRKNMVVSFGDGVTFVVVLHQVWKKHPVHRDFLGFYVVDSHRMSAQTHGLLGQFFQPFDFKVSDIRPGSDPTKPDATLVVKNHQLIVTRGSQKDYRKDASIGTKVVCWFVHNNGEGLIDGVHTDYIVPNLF
UniProt Q9Y6K9, whole entry, looked up: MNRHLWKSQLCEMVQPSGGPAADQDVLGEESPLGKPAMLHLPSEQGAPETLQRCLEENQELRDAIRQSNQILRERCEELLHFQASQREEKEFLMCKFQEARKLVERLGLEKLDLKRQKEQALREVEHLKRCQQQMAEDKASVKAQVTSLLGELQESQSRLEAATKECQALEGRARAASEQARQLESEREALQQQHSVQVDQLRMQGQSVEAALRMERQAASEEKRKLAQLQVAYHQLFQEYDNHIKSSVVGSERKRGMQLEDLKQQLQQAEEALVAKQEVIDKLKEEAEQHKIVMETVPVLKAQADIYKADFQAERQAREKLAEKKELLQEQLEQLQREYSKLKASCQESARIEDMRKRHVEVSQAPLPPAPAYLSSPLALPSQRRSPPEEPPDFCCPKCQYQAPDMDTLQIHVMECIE
UniProt Q70UQ0: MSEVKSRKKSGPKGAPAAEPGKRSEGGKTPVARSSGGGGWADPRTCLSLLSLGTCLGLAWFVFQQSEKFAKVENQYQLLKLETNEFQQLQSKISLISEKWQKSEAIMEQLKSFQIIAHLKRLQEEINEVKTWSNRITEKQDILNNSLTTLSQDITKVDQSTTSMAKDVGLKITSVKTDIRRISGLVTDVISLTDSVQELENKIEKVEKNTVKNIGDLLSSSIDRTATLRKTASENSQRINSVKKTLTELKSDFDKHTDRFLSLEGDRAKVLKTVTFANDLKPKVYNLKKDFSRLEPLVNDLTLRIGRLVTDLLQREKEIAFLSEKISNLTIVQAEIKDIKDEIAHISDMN
UniProt P51553: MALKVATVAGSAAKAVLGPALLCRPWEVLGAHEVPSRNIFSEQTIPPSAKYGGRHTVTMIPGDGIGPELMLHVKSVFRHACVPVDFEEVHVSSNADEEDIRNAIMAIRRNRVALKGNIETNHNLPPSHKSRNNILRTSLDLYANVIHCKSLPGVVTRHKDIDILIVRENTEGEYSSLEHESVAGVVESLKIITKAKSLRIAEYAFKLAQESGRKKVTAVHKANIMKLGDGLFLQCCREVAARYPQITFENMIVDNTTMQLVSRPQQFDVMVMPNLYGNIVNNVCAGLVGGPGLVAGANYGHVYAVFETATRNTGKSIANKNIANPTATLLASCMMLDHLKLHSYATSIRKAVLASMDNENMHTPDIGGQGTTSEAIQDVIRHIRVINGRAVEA
UniProt O00425, whole entry, looked up: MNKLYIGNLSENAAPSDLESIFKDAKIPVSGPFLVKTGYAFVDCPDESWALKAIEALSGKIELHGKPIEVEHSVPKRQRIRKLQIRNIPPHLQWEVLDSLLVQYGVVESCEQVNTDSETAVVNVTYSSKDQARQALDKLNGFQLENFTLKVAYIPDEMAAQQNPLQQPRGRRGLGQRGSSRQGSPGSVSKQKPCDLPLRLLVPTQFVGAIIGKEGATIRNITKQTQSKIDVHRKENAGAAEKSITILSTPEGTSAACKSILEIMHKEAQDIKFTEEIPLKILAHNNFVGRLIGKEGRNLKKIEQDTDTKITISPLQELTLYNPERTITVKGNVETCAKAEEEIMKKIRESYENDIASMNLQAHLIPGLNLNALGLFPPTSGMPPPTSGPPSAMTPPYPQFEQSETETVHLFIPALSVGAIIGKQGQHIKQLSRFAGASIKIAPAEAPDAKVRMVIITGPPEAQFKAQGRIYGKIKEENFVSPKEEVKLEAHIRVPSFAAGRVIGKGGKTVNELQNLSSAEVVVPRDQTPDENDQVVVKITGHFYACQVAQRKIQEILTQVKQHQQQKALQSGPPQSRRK
UniProt Q9ULR0: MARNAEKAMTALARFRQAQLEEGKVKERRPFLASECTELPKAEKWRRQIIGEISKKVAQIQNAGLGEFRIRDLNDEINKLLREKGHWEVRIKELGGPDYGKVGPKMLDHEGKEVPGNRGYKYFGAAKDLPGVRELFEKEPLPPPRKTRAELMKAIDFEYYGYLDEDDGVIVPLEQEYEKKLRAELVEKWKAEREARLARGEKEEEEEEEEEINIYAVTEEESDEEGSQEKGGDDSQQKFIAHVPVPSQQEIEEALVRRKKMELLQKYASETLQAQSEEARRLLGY
UniProt P08648, whole entry, looked up: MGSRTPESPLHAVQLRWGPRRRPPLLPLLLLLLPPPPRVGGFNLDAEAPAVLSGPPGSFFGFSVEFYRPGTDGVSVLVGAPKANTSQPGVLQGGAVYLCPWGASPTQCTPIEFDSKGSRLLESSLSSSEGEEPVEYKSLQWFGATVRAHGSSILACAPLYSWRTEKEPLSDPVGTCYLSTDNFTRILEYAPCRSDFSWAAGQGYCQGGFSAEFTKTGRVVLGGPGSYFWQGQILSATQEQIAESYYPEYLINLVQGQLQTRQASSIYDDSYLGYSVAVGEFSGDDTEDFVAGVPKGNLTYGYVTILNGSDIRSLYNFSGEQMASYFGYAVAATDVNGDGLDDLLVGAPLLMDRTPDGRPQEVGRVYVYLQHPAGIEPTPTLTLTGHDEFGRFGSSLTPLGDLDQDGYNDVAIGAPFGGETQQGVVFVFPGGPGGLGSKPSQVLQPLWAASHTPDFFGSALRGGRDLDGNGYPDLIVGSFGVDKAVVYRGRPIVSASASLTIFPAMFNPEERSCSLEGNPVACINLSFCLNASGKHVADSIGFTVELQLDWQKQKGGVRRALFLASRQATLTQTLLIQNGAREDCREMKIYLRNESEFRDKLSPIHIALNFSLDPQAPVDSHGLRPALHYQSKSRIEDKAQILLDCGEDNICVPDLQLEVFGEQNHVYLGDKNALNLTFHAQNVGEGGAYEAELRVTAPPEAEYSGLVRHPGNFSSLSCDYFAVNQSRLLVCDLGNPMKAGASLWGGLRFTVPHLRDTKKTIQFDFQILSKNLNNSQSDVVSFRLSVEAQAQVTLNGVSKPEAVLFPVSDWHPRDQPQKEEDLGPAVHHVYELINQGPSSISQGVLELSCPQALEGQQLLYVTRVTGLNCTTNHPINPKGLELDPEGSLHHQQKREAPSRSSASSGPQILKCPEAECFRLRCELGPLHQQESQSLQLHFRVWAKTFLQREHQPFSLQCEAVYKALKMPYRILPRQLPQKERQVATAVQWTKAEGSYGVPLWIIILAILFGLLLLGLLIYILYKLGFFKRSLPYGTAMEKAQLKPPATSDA
UniProt Q9NVR2, whole entry, looked up: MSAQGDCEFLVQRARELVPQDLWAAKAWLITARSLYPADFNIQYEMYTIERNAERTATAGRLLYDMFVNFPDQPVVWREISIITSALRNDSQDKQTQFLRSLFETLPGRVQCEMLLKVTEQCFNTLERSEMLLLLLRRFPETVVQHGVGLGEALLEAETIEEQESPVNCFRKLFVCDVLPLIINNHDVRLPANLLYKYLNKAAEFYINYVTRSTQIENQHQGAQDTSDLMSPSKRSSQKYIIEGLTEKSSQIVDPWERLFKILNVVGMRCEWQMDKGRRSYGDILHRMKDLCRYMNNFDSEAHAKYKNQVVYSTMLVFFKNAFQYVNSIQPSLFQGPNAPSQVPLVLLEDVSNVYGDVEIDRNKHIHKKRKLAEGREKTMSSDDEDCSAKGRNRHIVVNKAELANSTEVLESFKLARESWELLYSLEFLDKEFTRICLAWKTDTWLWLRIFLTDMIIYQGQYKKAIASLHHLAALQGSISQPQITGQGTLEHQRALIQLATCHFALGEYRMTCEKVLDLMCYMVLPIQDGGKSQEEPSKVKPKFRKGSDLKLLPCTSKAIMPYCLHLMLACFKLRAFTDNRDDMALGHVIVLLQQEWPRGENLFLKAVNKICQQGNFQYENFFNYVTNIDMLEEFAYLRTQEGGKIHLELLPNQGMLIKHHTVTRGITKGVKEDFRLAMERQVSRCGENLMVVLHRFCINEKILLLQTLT
UniProt P05161, whole entry, looked up: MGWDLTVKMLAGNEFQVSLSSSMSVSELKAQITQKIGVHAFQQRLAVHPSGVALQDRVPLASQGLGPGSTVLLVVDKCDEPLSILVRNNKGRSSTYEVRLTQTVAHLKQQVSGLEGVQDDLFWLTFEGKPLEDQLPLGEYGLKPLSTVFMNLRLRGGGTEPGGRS

Tests used:
Assay in all cases: log2 fold change, soluble protein after heating vs DMSO (PISA); higher = thermal stabilisation; K562 cells, 10 uM, 30 min; active = over 0.2 and 3.5 SD of the protein, either way, in both replicates (recomputed)
erlotinib = compound: C#Cc1cccc(Nc2ncnc3cc(OCCOC)c(OCCOC)cc23)c1 [erlotinib]
Method in brief: (§1)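 Aliquots of K562 cells (2×10^6 cells/mL) treated with 10 μM compound for 30 min were heated for 3 min over 48°C-58°C. After pooling and extraction in PBS with 0.5% NP-40 at 4°C, soluble protein from a 21,000xg, 90 min spin was quantified by TMTpro 16plex LC-MS/MS with channel sums equalised. Thermal stability is expressed against control samples, from duplicates, as a log2 fold change.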

[1] = compound: C/C(=N\NC(=O)C1=CC(=CC=C1)S(=O)(=O)N2CCOCC2)/C3=C(C=CC(=C3)Cl)O
Method in brief: as §1

[2] = compound: C1=CC(=C(C=C1Cl)C2=NC3=NC=CN=C3C(=N2)NC4=CC=NC=C4)F
Method in brief: as §1

[3] = compound: C1=CC(=CC=C1C2=NC3=C(N2)C=C(C=C3)C(=O)N)OC4=CC=C(C=C4)Cl
Method in brief: as §1

[4] = compound: C1=CC2=C(C=CC(=C2)/C=C\3/C(=O)NC(=NCC4=CC=CS4)S3)N=C1
Method in brief: as §1

[5] = compound: C1=CC2=NC=CN=C2C=C1/C=C/3\C(=O)NC(=O)S3
Method in brief: as §1

[6] = compound: C1=CC=C(C=C1)C2=NC(=C(N2)C3=CC=NC=C3)C4=CC(=C(C=C4)Cl)O
Method in brief: as §1

[7] = compound: C1=CC=C2C(=C1)C3=NNC4=CC=CC(=C43)C2=O
Method in brief: as §1

[8] = compound: C1CCN(C1)C(=O)NC2=CC=CC(=C2)NC3=NC=C(C(=N3)NCCC4=CN=CN4)Br
Method in brief: as §1

[9] = compound: C1CN(CCC1(CC2=CC=C(C=C2)Cl)N)C3=NC=NC4=C3C=CN4
Method in brief: as §1

IRAK-1-4 Inhibitor I = compound: C1COCCN1CCN2C3=CC=CC=C3N=C2NC(=O)C4=CC(=CC=C4)[N+](=O)[O-] [IRAK-1-4 Inhibitor I]
Method in brief: as §1

ibrutinib = compound: C=CC(=O)N1CCC[C@@H](n2nc(-c3ccc(Oc4ccccc4)cc3)c3c(N)ncnc32)C1 [ibrutinib]
Method in brief: as §1

[10] = compound: CC(=O)c1cnc2ccc(-c3cc(Cl)c(O)c(Cl)c3)nc2c1N[C@H]1CC[C@H](CN(C)C)CC1
Method in brief: as §1

ralimetinib = compound: CC(C)(C)Cn1c(N)nc2ccc(-c3[nH]c(C(C)(C)C)nc3-c3ccc(F)cc3)nc21 [ralimetinib]
Method in brief: as §1

[11] = compound: CC(C)(O)CC(=O)NCCn1ccc2ncnc(Nc3ccc(Oc4cccc(C(F)(F)F)c4)c(Cl)c3)c21
Method in brief: as §1

[12] = compound: CC(C)C1=C2N=C(C=C(N2N=C1)NCC3=CC=CC=C3)NCCCCCCN
Method in brief: as §1

[13] = compound: CC(C)C[C@@H](C=O)NC(=O)[C@H](CC(C)C)NC(=O)[C@H](CC(C)C)NC(=O)OCc1ccccc1
Method in brief: as §1

pinometostat = compound: CC(C)N(C[C@H]1O[C@@H](n2cnc3c(N)ncnc32)[C@H](O)[C@@H]1O)[C@H]1C[C@@H](CCc2nc3cc(C(C)(C)C)ccc3[nH]2)C1 [pinometostat]
Method in brief: as §1

[14] = compound: CC1=C(C(CC(=O)N1)C2=CC=C(C=C2)C(F)(F)F)C(=O)NC3=C(C=C4C(=C3)C=NN4)F
Method in brief: as §1

[15] = compound: CC1=C(C2=C(C=C1)C(=O)C3=CC=CC=C3N2CCCN)C
Method in brief: as §1

Measured: log2 fold change

IMPA1 isoform 3 (UniProt P29218)
inactive: erlotinib 0.005 | [1] 0.006 | [2] 0.038 | [3] 0.019 | [4] -0.001 | [5] 0.006 | [6] -0.047 | [7] -0.045 | [8] 0.001 | [9] 0.059 | IRAK-1-4 Inhibitor I 0.042 | ibrutinib 0.008 | [10] -0.004 | ralimetinib -0.061 | [11] -0.005 | [12] 0.088 | [13] -0.043 | pinometostat -0.038 | [14] 0.056 | [15] 0.023

IMPDH1 isoform 6 (UniProt P20839)
inactive: erlotinib -0.109 | [1] -0.08 | [2] -0.071 | [3] 0.006 | [4] -0.024 | [5] -0.01 | [6] -0.048 | [7] 0.026 | [8] -0.007 | [9] -0.029 | IRAK-1-4 Inhibitor I -0.062 | ibrutinib -0.013 | [10] 0.024 | ralimetinib 0 | [11] 0.048 | [12] 0.018 | [13] 0.004 | pinometostat 0.028 | [14] 0.062 | [15] -0.014

INPPL1 (UniProt O15357)
inactive: erlotinib 0.165 | [1] 0.093 | [2] -0.165 | [3] -0.076 | [4] 0.064 | [5] 0.148 | [6] 0.063 | [7] -0.053 | [8] 0.056 | [9] -0.037 | IRAK-1-4 Inhibitor I -0.037 | ibrutinib -0.064 | [10] -0.213 | ralimetinib -0.002 | [11] 0.012 | [12] -0.162 | [13] -0.008 | pinometostat 0.152 | [14] 0.121 | [15] -0.014

ITIH3 (UniProt Q06033)
inactive: erlotinib -0.349 | [1] -0.198 | [2] 0.03 | [3] 0.109 | [4] 0.067 | [5] -0.034 | [6] -0.121 | [7] -0.201 | [8] 0.13 | [9] 0.221 | IRAK-1-4 Inhibitor I -0.073 | ibrutinib 0.27 | [10] 0.141 | ralimetinib -0.045 | [11] 0.196 | [12] 0.236 | [13] 0.033 | pinometostat -0.136 | [14] -0.006 | [15] -0.158

IKBKG isoform 2 (UniProt Q9Y6K9)
inactive: erlotinib 0.013 | [1] -0.031 | [2] -0.013 | [3] -0.01 | [4] 0.036 | [5] 0.003 | [6] 0.048 | [7] -0.008 | [8] 0.028 | [9] -0.044 | IRAK-1-4 Inhibitor I 0 | ibrutinib -0.052 | [10] -0.05 | ralimetinib 0.02 | [11] 0.052 | [12] 0.066 | [13] -0.029 | pinometostat -0.038 | [14] 0.018 | [15] -0.09

IKBIP (UniProt Q70UQ0)
inactive: erlotinib -0.057 | [1] 0.033 | [2] -0.014 | [3] -0.001 | [4] 0.072 | [5] -0.012 | [6] -0.042 | [7] -0.039 | [8] 0.03 | [9] -0.005 | IRAK-1-4 Inhibitor I 0.018 | ibrutinib 0.006 | [10] -0.031 | ralimetinib 0.005 | [11] 0.008 | [12] 0.001 | [13] -0.006 | pinometostat 0.033 | [14] -0.005 | [15] 0.032

IDH3G (UniProt P51553)
inactive: erlotinib 0.014 | [1] 0 | [2] 0.088 | [3] -0.007 | [4] 0.028 | [5] 0.013 | [6] -0.022 | [7] 0.039 | [8] 0.031 | [9] 0.08 | IRAK-1-4 Inhibitor I 0.037 | ibrutinib -0.027 | [10] -0.006 | ralimetinib -0.034 | [11] -0.011 | [12] 0.025 | [13] -0.033 | pinometostat -0.042 | [14] -0.035 | [15] 0

Looked up one by one from above (2):
ITIH3 (UniProt Q06033)
inactive: erlotinib -0.349 | [1] -0.198 | [2] 0.03 | [3] 0.109 | [4] 0.067 | [5] -0.034 | [6] -0.121 | [7] -0.201 | [8] 0.13 | [9] 0.221 | IRAK-1-4 Inhibitor I -0.073 | ibrutinib 0.27 | [10] 0.141 | ralimetinib -0.045 | [11] 0.196 | [12] 0.236 | [13] 0.033 | pinometostat -0.136 | [14] -0.006 | [15] -0.158

IDH3G (UniProt P51553)
inactive: erlotinib 0.014 | [1] 0 | [2] 0.088 | [3] -0.007 | [4] 0.028 | [5] 0.013 | [6] -0.022 | [7] 0.039 | [8] 0.031 | [9] 0.08 | IRAK-1-4 Inhibitor I 0.037 | ibrutinib -0.027 | [10] -0.006 | ralimetinib -0.034 | [11] -0.011 | [12] 0.025 | [13] -0.033 | pinometostat -0.042 | [14] -0.035 | [15] 0

Continued:

IGBP1 (UniProt P78318)
inactive: erlotinib 0.014 | [1] 0.026 | [2] 0.065 | [3] 0.003 | [4] -0.016 | [5] 0.055 | [6] 0.058 | [7] -0.01 | [8] 0.05 | [9] 0.026 | IRAK-1-4 Inhibitor I 0.028 | ibrutinib -0.051 | [10] 0 | ralimetinib 0.059 | [11] -0.054 | [12] -0.11 | [13] -0.033 | pinometostat -0.029 | [14] -0.02 | [15] -0.031

IGF2BP3 (UniProt O00425)
inactive: erlotinib 0.011 | [1] -0.069 | [2] -0.549 | [3] 0.048 | [4] 0.023 | [5] -0.011 | [6] -0.092 | [7] 0.002 | [8] 0.069 | [9] -0.007 | IRAK-1-4 Inhibitor I -0.258 | ibrutinib 0.029 | [10] 0.016 | ralimetinib 0.304 | [11] 0.069 | [12] -0.273 | [13] 0.216 | pinometostat 0.411 | [14] -0.018 | [15] -0.201

ISY1 isoform 1 (UniProt Q9ULR0)
inactive: erlotinib 0.007 | [1] -0.048 | [2] -0.049 | [3] 0.023 | [4] -0.005 | [5] 0.093 | [6] -0.118 | [7] -0.121 | [8] -0.012 | [9] 0.033 | IRAK-1-4 Inhibitor I 0.038 | ibrutinib 0.061 | [10] 0.141 | ralimetinib -0.05 | [11] 0.041 | [12] 0.168 | [13] 0.039 | pinometostat -0.019 | [14] 0.037 | [15] 0.08

INTS3 (UniProt Q68E01)
inactive: erlotinib 0.024 | [1] 0.109 | [2] -0.037 | [3] -0.085 | [4] 0.187 | [5] 0.028 | [6] -0.039 | [7] 0.033 | [8] -0.023 | [9] -0.099 | IRAK-1-4 Inhibitor I -0.019 | ibrutinib 0.001 | [10] 0.187 | ralimetinib -0.032 | [11] -0.045 | [12] -0.095 | [13] 0.107 | pinometostat 0.014 | [14] 0.054 | [15] 0.052

IMPDH2 (UniProt H0Y4R1)
inactive: erlotinib -0.137 | [1] -0.082 | [2] -0.17 | [3] 0.185 | [4] 0.12 | [5] -0.004 | [6] -0.027 | [7] -0.049 | [8] 0.001 | [9] 0 | IRAK-1-4 Inhibitor I -0.095 | ibrutinib -0.037 | [10] 0.022 | ralimetinib -0.032 | [11] -0.111 | [12] 0.06 | [13] -0.012 | pinometostat 0.052 | [14] -0.036 | [15] 0.023

ITGA5 (UniProt P08648)
inactive: erlotinib 0.014 | [1] -0.022 | [2] 0.048 | [3] 0.003 | [4] 0.041 | [5] 0.017 | [6] -0.038 | [7] -0.056 | [8] -0.051 | [9] 0.06 | IRAK-1-4 Inhibitor I 0.06 | ibrutinib 0.027 | [10] -0.045 | ralimetinib -0.033 | [11] -0.02 | [12] 0.173 | [13] 0.02 | pinometostat -0.025 | [14] -0.037 | [15] 0.068

IRF2BP2 (UniProt Q7Z5L9)
inactive: erlotinib 0.006 | [1] -0.003 | [2] 0.059 | [3] -0.025 | [4] 0.003 | [5] -0.017 | [6] -0.01 | [7] -0.029 | [8] -0.07 | [9] 0.029 | IRAK-1-4 Inhibitor I -0.017 | ibrutinib 0 | [10] -0.028 | ralimetinib -0.012 | [11] -0.026 | [12] 0.06 | [13] 0.049 | pinometostat -0.062 | [14] 0.021 | [15] 0.019

INTS10 (UniProt Q9NVR2)
inactive: erlotinib -0.018 | [1] 0.016 | [2] 0.024 | [3] 0.06 | [4] 0.044 | [5] 0.046 | [6] -0.028 | [7] 0.002 | [8] 0.015 | [9] 0.037 | IRAK-1-4 Inhibitor I -0.022 | ibrutinib -0.035 | [10] -0.104 | ralimetinib -0.1 | [11] -0.055 | [12] -0.049 | [13] -0.087 | pinometostat -0.04 | [14] 0.022 | [15] 0.056

ISG15 (UniProt P05161)
inactive: erlotinib 0.046 | [1] -0.036 | [2] 0.093 | [3] -0.005 | [4] 0.126 | [5] 0.049 | [6] 0.074 | [7] -0.075 | [8] -0.07 | [9] 0.055 | IRAK-1-4 Inhibitor I 0.02 | ibrutinib -0.048 | [10] -0.028 | ralimetinib 0.003 | [11] -0.15 | [12] -0.025 | [13] -0.039 | pinometostat 0.156 | [14] -0.059 | [15] 0
